From US20220249441A1, “Homodimeric Tobramycin Adjuvant Repurposes Novobiocin as an Effective Antibacterial Agent Against Gram-Negative Bacteria” (priority 2019, published 2022)
Some of these results come from one statement about several compounds together. For at least one compound, name, drawing or mass did not settle the structure.

Tested on: porcine erythrocytes
Experiment: Hemolytic assay
Details: at 1024 vg/ml

For `NC[C@H]1O[C@H](O[C@H]2[C@H](OCCCCc3cn(CCCCO[C@@H]4[C@@H](O[C@H]5O[C@H](CO)[C@@H](O)[C@H](N)[C@H]5O)[C@H](N)C[C@H](N)[C@H]4O[C@H]4O[C@H](CN)[C@@H](O)C[C@H]4N)nn3)[C@@H](O[C@H]3O[C@H](CO)[C@@H](O)[C@H](N)[C@H]3O)[C@H](N)C[C@@H]2N)[C@H](N)C[C@@H]1O.O=C(O)C(F)(F)F.O=C(O)C(F)(F)F.O=C(O)C(F)(F)F.O=C(O)C(F)(F)F.O=C(O)C(F)(F)F.O=C(O)C(F)(F)F.O=C(O)C(F)(F)F.O=C(O)C(F)(F)F.O=C(O)C(F)(F)F.O=C(O)C(F)(F)F` [Compound 1, Tobramycin Homodimer 1], the “hemolysis of porcine erythrocytes” value was “non-hemolytic”.
